Source: US20240391873 (published 2024)

Assay: general procedure: Fmoc solid-phase peptide synthesis; Tentagel based Rink amide resin; TBTU/DIEA
Conditions: for crude HPLC purity: HPLC (area %)

Row | Substance | conjugation yield (conjugation step) | crude HPLC purity (conjugation step) | step yield (purification step) | crude HPLC purity (late stage modification step) | step yield (late stage modification step, without correction for assay or purity)
1 | O-{[(3S)-3-Amino-4-({(2R)-1-amino-3-[(2,5-dioxo-1-{3-oxo-3-[(2-{ω-methoxy-poly-oxyethylen[40 kDa]}ethyl)amino]propyl}pyrrolidin-3-yl)sulfanyl]-1-oxopropan-2-yl}amino)-4-oxobutyl]carbamoyl}-L-tyrosyl-adrenomedullin (2-52)(“PEG-ADM”) | ˜68% | 81.6 area % | 97% | – | –
2 | O-{[(3S)-3-Amino-4-{[(2R)-1-amino-1-oxo-3-sulfanylpropan-2-yl]amino}-4-oxobutyl]-carbamoyl}-L-tyrosyl-adrenomedullin (2-52) | – | – | – | 85.2 area % | 100%
